Source: patent publication US20230203153A1 (CHILDREN S MEDICAL CENTER, published 2023)
Changes are numbered by the printed parent chain. Results are given in words; binding and its absence hold for the method and conditions named. Some results given as binding are weak or reduced against the parent protein; the word gives no strength.

Chains of the proteins cited; added tags and fusions are not shown. Lines headed by an entry give the natural chain unless they say otherwise; changes in a name come on top.
UniProt B5X0E4: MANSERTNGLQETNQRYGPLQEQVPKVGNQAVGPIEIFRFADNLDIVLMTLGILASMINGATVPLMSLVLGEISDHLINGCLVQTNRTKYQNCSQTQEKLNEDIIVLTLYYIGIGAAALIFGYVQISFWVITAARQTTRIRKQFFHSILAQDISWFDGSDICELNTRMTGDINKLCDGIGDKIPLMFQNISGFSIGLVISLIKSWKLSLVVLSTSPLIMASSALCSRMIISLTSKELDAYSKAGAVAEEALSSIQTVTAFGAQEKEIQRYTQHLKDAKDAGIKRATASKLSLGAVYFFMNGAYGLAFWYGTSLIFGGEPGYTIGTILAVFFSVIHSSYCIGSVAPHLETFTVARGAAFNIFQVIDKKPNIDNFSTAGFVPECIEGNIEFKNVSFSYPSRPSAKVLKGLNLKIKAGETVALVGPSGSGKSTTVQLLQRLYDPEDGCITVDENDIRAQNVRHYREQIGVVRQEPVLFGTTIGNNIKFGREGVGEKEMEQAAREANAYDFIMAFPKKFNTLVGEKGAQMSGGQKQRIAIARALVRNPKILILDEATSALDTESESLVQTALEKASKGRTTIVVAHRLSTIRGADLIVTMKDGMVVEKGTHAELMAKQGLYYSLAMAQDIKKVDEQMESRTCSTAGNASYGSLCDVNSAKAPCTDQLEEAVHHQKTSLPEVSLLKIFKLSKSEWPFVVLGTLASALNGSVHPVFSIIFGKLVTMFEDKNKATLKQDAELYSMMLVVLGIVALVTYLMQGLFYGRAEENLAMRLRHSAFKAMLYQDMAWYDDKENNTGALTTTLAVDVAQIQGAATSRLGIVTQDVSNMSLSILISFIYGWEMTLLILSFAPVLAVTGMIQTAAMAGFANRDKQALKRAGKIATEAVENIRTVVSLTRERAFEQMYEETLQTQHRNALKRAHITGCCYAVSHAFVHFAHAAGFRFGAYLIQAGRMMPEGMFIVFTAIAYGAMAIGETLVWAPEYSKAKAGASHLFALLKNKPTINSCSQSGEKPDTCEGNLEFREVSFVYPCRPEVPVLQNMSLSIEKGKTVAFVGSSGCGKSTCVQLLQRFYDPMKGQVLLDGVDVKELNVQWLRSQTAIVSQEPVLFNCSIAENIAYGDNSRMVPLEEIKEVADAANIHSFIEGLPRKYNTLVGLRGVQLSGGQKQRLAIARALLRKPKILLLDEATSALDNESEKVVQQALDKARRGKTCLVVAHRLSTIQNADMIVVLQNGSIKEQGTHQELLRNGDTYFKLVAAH
UniProt P21439: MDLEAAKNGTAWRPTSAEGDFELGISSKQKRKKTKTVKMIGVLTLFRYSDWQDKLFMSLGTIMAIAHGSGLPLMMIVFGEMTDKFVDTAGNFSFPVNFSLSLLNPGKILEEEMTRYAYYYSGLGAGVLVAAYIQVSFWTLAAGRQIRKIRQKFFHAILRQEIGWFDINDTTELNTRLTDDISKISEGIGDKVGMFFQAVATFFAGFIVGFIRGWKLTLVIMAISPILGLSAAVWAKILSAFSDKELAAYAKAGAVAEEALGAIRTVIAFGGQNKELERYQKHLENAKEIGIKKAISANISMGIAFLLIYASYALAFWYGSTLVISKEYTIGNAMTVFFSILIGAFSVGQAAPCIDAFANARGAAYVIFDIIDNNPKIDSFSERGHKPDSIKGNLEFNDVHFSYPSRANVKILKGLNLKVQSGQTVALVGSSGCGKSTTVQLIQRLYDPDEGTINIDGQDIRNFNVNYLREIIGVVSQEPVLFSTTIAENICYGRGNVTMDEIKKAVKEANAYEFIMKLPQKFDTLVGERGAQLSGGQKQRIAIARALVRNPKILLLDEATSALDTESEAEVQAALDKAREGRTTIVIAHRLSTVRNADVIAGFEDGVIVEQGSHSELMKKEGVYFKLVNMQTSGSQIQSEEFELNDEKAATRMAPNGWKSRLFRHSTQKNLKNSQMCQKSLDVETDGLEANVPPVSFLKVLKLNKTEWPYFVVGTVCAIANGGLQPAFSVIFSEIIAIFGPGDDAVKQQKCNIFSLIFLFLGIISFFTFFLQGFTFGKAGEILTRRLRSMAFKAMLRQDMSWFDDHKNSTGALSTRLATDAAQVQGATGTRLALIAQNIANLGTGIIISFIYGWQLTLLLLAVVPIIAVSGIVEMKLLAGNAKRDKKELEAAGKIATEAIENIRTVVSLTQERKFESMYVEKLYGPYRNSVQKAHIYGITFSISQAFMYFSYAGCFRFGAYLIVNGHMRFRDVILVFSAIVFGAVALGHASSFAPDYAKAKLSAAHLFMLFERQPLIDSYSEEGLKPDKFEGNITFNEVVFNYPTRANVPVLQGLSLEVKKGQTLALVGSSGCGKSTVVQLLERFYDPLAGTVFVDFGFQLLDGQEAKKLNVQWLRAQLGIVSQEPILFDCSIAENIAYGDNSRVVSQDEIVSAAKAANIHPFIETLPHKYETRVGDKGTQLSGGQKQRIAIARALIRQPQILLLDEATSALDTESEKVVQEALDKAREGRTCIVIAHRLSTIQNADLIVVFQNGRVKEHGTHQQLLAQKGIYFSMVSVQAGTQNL

T1: murine ABCB5 peptide segment corresponding to the ABCB5 linear epitope peptide (murine) (UniProt B5X0E4)
T1 sequence (peptide, looked up): RFGAYLIQAGRMMPEG

T2: ABCB4 peptide segment corresponding to the ABCB5 linear epitope peptide (human) (UniProt P21439)
T2 sequence (peptide, looked up): RFGAYLIVNGHMRFRD

B1: ABCB5-Ab100 (antibody, human IgG1, kappa, V domains shown)
VH: EVQLVESGGGLVQPGGSLRLSCAASGFTFSSYSMNWVRQAPGKGLEWVSYISSSSSTIYYADSVKGRFTISRDNAKNSLYLQMNSLRDEDTAVYYCASNYQYGDYGGYWGRGTLVTVSS
VL: AIQLTQSPSSLTGSVGDRVTITCQASHDISNFLNWYQQKPGQAPKLLIYDAYNLQTGVPSRFSGTGSGTHFTLTINSLQPEDVGTYFCQQYDYFLSITFGQGTRLEIKR
B2: ABCB5-Ab101 (antibody, human IgG1, kappa, V domains shown)
VH: QVQLVQSGAEVKKPGASVKVSCKASGYTFTSYYMHWVRQAPGQGLEWMGIINPSGGSTSYAQKFQGRVTMTRDTSTSTVYMELSSLRSEDTAVYYCARDQAVTGTAYYYYYGMDVWGQGTTVTVSS
VL: EIVLTQSPGTLSLSPGERATLSCRASQSVNSNYLAWYQQKPGQAPRLLIYGTSSRATGIPDSFSGSGSGTDFTLTISRLEPEDFAVYYCQQFGSSPLTFGGGTKVEIKR
notes: Fully human monoclonal IgG1 kappa
B3: ABCB5-Ab43 (antibody, V domains shown)
VH: B2 VH with A40S
VL: EIVLTQSPGTLSLSPGERATLSCRASQSVNSKYLAWYQQKPGQAPRLLIYGTSSRATGIPDSFSGSGSGTDFTLTISRLEPEDFAVYYCQQFGSSPLTFGGGTKVEIK
B4: ABCB5-Ab42 (antibody, V domains shown)
VH: B2 VH with A24T, A40S
VL: B3 VL with Q27L, K32N
notes: detection was with an anti-human secondary antibody
B5: ABCB5-Ab44 (antibody, V domains shown)
VH: B2 VH with Q65K
VL: B3 VL with K32N
notes: also called A44; F01
B6: ABCB5-Ab45 (antibody, V domains shown)
VH: B2 VH with S31N, L45P, Q100L
VL: B3 VL with I2F, K32N

Biological target: T1, murine ABCB5 peptide segment corresponding to the ABCB5 linear epitope peptide (murine)
Experiment: linear peptide ELISA, BSA-conjugated peptides (20 µM), OD 450 nm (mAb-Iso)

binding	Binder
binds	B1

Biological target: T2, ABCB4 peptide segment corresponding to the ABCB5 linear epitope peptide (human)
Experiment: linear peptide ELISA, BSA-conjugated peptides (20 µM), OD 450 nm (mAb-Iso (InVivoPlus+))

binding	Binder
binds	B2
binds	B3
binds	B4
binds	B5
binds	B6

Biological target: T1, murine ABCB5 peptide segment corresponding to the ABCB5 linear epitope peptide (murine)
Experiment: as above

binding	Binder
binds	B2
binds	B3
binds	B4
binds	B5
binds	B6

Biological target: T1, murine ABCB5 peptide segment corresponding to the ABCB5 linear epitope peptide (murine)
Experiment: linear peptide ELISA (20 uM peptides)

binding	Binder
binds	B1
